Source: the supplement of paper PMC8728848
The list shows a part of the results.

Experiments:
Assay in all cases: glycan array binding signal (z-score within array); higher = stronger binding
Conditions in all cases: glycan notation: IUPAC condensed, linker removed
Neu5Ac(a2-3)GalNAc = target: Neu5Ac(a2-3)GalNAc
Summary of the method: (§1)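 The binding signal is a Z-score computed within each array. Data were drawn from 3228 arrays in the Consortium for Functional Glycomics database, restricted to those with a known protein sequence. Scores were averaged over arrays of the same protein sequence at different concentrations or buffers, and over linkers, and negative values can be taken as non-binding.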

[1] = target: Neu5Ac(a2-3)GalNAc(b1-4)GlcNAc
Summary of the method: as §1

[2] = target: Neu5Ac(a2-3)[GalNAc(b1-4)]Gal(b1-4)Glc
Summary of the method: as §1

[3] = target: Neu5Ac(a2-3)[GalNAc(b1-4)]Gal(b1-4)GlcNAc
Summary of the method: as §1

[4] = target: Neu5Ac(a2-3)[GalNAc(b1-4)]Gal(b1-4)GlcNAc(b1-3)GalNAc
Summary of the method: as §1

[5] = target: Neu5Ac(a2-3)[Neu5Ac(a2-6)]GalNAc
Summary of the method: as §1

Neu5Ac(a2-6)Gal = target: Neu5Ac(a2-6)Gal
Summary of the method: as §1

[6] = target: Neu5Ac(a2-6)Gal(b1-3)GlcNAc(b1-3)[Gal(b1-4)GlcNAc(b1-6)]Gal(b1-4)Glc
Summary of the method: as §1

Neu5Ac(a2-6)Gal(b1-4)Glc = target: Neu5Ac(a2-6)Gal(b1-4)Glc
Summary of the method: as §1

[7] = target: Neu5Ac(a2-6)Gal(b1-4)GlcNAc
Summary of the method: as §1

[8] = target: Neu5Ac(a2-6)Gal(b1-4)GlcNAc(b1-2)Man
Summary of the method: as §1

[9] = target: Neu5Ac(a2-6)Gal(b1-4)GlcNAc(b1-2)Man(a1-3)Man(b1-4)GlcNAc(b1-4)GlcNAc
Summary of the method: as §1

[10] = target: Neu5Ac(a2-6)Gal(b1-4)GlcNAc(b1-2)Man(a1-3)[Gal(b1-4)GlcNAc(b1-2)Man(a1-6)]Man(b1-4)GlcNAc(b1-4)GlcNAc
Summary of the method: as §1

[11] = target: Neu5Ac(a2-6)Gal(b1-4)GlcNAc(b1-2)Man(a1-3)[GlcNAc(b1-2)Man(a1-6)]Man(b1-4)GlcNAc(b1-4)GlcNAc
Summary of the method: as §1

[12] = target: Neu5Ac(a2-6)Gal(b1-4)GlcNAc(b1-2)Man(a1-3)[GlcNAc(b1-4)][Neu5Ac(a2-6)Gal(b1-4)GlcNAc(b1-2)Man(a1-6)]Man(b1-4)GlcNAc(b1-4)GlcNAc
Summary of the method: as §1

[13] = target: Neu5Ac(a2-6)Gal(b1-4)GlcNAc(b1-2)Man(a1-3)[Man(a1-6)]Man(b1-4)GlcNAc(b1-4)GlcNAc
Summary of the method: as §1

[14] = target: Neu5Ac(a2-6)Gal(b1-4)GlcNAc(b1-2)Man(a1-3)[Neu5Ac(a2-3)Gal(b1-4)GlcNAc(b1-2)Man(a1-6)]Man(b1-4)GlcNAc(b1-4)GlcNAc
Summary of the method: as §1

[15] = target: Neu5Ac(a2-6)Gal(b1-4)GlcNAc(b1-2)Man(a1-3)[Neu5Ac(a2-6)Gal(b1-4)GlcNAc(b1-2)Man(a1-6)]Man(b1-4)GlcNAc(b1-4)GlcNAc
Summary of the method: as §1

[16] = target: Neu5Ac(a2-6)Gal(b1-4)GlcNAc(b1-2)Man(a1-3)[Neu5Ac(a2-6)Gal(b1-4)GlcNAc(b1-2)Man(a1-6)]Man(b1-4)GlcNAc(b1-4)[Fuc(a1-6)]GlcNAc
Summary of the method: as §1

[17] = target: Neu5Ac(a2-6)Gal(b1-4)GlcNAc(b1-2)Man(a1-6)Man(b1-4)GlcNAc(b1-4)GlcNAc
Summary of the method: as §1

[18] = target: Neu5Ac(a2-6)Gal(b1-4)GlcNAc(b1-2)Man(a1-6)[Gal(b1-4)GlcNAc(b1-2)Man(a1-3)]Man(b1-4)GlcNAc(b1-4)GlcNAc
Summary of the method: as §1

[19] = target: Neu5Ac(a2-6)Gal(b1-4)GlcNAc(b1-2)Man(a1-6)[GlcNAc(b1-2)Man(a1-3)]Man(b1-4)GlcNAc(b1-4)GlcNAc
Summary of the method: as §1

[20] = target: Neu5Ac(a2-6)Gal(b1-4)GlcNAc(b1-2)Man(a1-6)[Man(a1-3)]Man(b1-4)GlcNAc(b1-4)GlcNAc
Summary of the method: as §1

[21] = target: Neu5Ac(a2-6)Gal(b1-4)GlcNAc(b1-2)[Neu5Ac(a2-6)Gal(b1-4)GlcNAc(b1-4)]Man(a1-3)[GlcNAc(b1-4)][Neu5Ac(a2-6)Gal(b1-4)GlcNAc(b1-2)[Neu5Ac(a2-6)Gal(b1-4)GlcNAc(b1-6)]Man(a1-6)]Man(b1-4)GlcNAc(b1-4)GlcNAc
Summary of the method: as §1

[22] = target: Neu5Ac(a2-6)Gal(b1-4)GlcNAc(b1-2)[Neu5Ac(a2-6)Gal(b1-4)GlcNAc(b1-4)]Man(a1-3)[GlcNAc(b1-4)][Neu5Ac(a2-6)Gal(b1-4)GlcNAc(b1-4)Man(a1-6)]Man(b1-4)GlcNAc(b1-4)GlcNAc
Summary of the method: as §1

[23] = target: Neu5Ac(a2-6)Gal(b1-4)GlcNAc(b1-2)[Neu5Ac(a2-6)Gal(b1-4)GlcNAc(b1-6)]Man(a1-6)[Neu5Ac(a2-6)Gal(b1-4)GlcNAc(b1-2)Man(a1-3)][GlcNAc(b1-4)]Man(b1-4)GlcNAc(b1-4)GlcNAc
Summary of the method: as §1

[24] = target: Neu5Ac(a2-6)Gal(b1-4)GlcNAc(b1-3)Gal(b1-3)GlcNAc
Summary of the method: as §1

[25] = target: Neu5Ac(a2-6)Gal(b1-4)GlcNAc(b1-3)Gal(b1-4)GlcNAc
Summary of the method: as §1

[26] = target: Neu5Ac(a2-6)Gal(b1-4)GlcNAc(b1-3)Gal(b1-4)GlcNAc(b1-2)Man(a1-3)[Neu5Ac(a2-6)Gal(b1-4)GlcNAc(b1-3)Gal(b1-4)GlcNAc(b1-2)Man(a1-6)]GalNAc
Summary of the method: as §1

[27] = target: Neu5Ac(a2-6)Gal(b1-4)GlcNAc(b1-3)Gal(b1-4)GlcNAc(b1-3)Gal(b1-4)GlcNAc
Summary of the method: as §1

[28] = target: Neu5Ac(a2-6)Gal(b1-4)GlcNAc(b1-3)Gal(b1-4)GlcNAc(b1-3)Gal(b1-4)GlcNAc(b1-2)Man(a1-3)[Neu5Ac(a2-6)Gal(b1-4)GlcNAc(b1-3)Gal(b1-4)GlcNAc(b1-3)Gal(b1-4)GlcNAc(b1-2)Man(a1-6)]GalNAc
Summary of the method: as §1

[29] = target: Neu5Ac(a2-6)Gal(b1-4)GlcNAc(b1-3)Gal(b1-4)GlcNAc(b1-3)GalNAc
Summary of the method: as §1

[30] = target: Neu5Ac(a2-6)Gal(b1-4)GlcNAc(b1-3)Gal(b1-4)GlcNAc(b1-3)[Neu5Ac(a2-6)Gal(b1-4)GlcNAc(b1-3)Gal(b1-4)GlcNAc(b1-6)]GalNAc
Summary of the method: as §1

[31] = target: Neu5Ac(a2-6)Gal(b1-4)GlcNAc(b1-3)Gal(b1-4)GlcNAc(b1-6)[Gal(b1-3)]GalNAc
Summary of the method: as §1

[32] = target: Neu5Ac(a2-6)Gal(b1-4)GlcNAc(b1-3)Gal(b1-4)[Fuc(a1-3)]GlcNAc(b1-3)Gal(b1-4)[Fuc(a1-3)]GlcNAc
Summary of the method: as §1

[33] = target: Neu5Ac(a2-6)Gal(b1-4)GlcNAc(b1-3)GalNAc
Summary of the method: as §1

[34] = target: Neu5Ac(a2-6)Gal(b1-4)GlcNAc(b1-3)[Neu5Ac(a2-6)Gal(b1-4)GlcNAc(b1-6)]GalNAc
Summary of the method: as §1

B1: GS7807F-bth-514-18-514 (Bacteroides thetaiotaomicron) (protein)
chain: AGSCTGNFEEYNTNQFQIHEADPSTLMKSMIETIVNIQQNDSQMMDQMVGQLGGYLTCANVWSGTNFGTFNQSDAWNAGPWNTNFEKIYGNFFQIQEATNESGHYYAFARMIRAITMLRVADCYGPMPYSQVKKGNFYVAYDTEEQVYKNIMEDFASAANVLYNYYKDTNGNAPLASNDPVFSGNYANWARLANSMRLRVAIRISTAYPEMAKENAEAAASHEAGLIEANNDNAMMDCGSQTNPYQLAAVSWGDLRVNANIVDYMNGYGDPRMSKYFNHSTFTGHTQEYVGMRSGEDGFAKSDVAGYSIPAITGTSKLLVFCAAETAFLRAEGKLKNWSVGNKSAKEYYEEGIKLSMEQYGTTMPDNYLTNTEKPTVSHNNDPRGHAYTISNTVAVAWNDNNEEENLQRIITQKWIANYPLGLEAWAEYRRTGYPELYPCIDNLSPSGVDSKRGMRRLRFPYTEVQNNHSNYQQGVSYLKNGGPDNEATDLSWGKTN
glycan array binding signal (z-score) (Neu5Ac(a2-3)GalNAc): -0.712 | glycan array binding signal (z-score) [1]: -0.897 | glycan array binding signal (z-score) [2]: -0.409 | glycan array binding signal (z-score) [3]: -0.73 | glycan array binding signal (z-score) [4]: 1.09 | glycan array binding signal (z-score) [5]: -0.781 | glycan array binding signal (z-score) (Neu5Ac(a2-6)Gal): 0.08 | glycan array binding signal (z-score) [6]: -0.294 | glycan array binding signal (z-score) (Neu5Ac(a2-6)Gal(b1-4)Glc): 0.099 | glycan array binding signal (z-score) [7]: -0.46 | glycan array binding signal (z-score) [8]: 0.851 | glycan array binding signal (z-score) [9]: -0.389 | glycan array binding signal (z-score) [10]: 0.779 | glycan array binding signal (z-score) [11]: 1.96 | glycan array binding signal (z-score) [12]: -0.135 | glycan array binding signal (z-score) [13]: 0.592 | glycan array binding signal (z-score) [14]: 0.724 | glycan array binding signal (z-score) [15]: -0.153 | glycan array binding signal (z-score) [16]: 0.201 | glycan array binding signal (z-score) [17]: 3.88 | glycan array binding signal (z-score) [18]: 3.49 | glycan array binding signal (z-score) [19]: -0.719 | glycan array binding signal (z-score) [20]: 0.785 | glycan array binding signal (z-score) [21]: 0.039 | glycan array binding signal (z-score) [22]: 0.006 | glycan array binding signal (z-score) [23]: 0.93 | glycan array binding signal (z-score) [24]: -0.025 | glycan array binding signal (z-score) [25]: -0.616 | glycan array binding signal (z-score) [26]: 0.299 | glycan array binding signal (z-score) [27]: -0.415 | glycan array binding signal (z-score) [28]: 0.55 | glycan array binding signal (z-score) [29]: -0.448 | glycan array binding signal (z-score) [30]: 0.811 | glycan array binding signal (z-score) [31]: 0.538 | glycan array binding signal (z-score) [32]: 1.81 | glycan array binding signal (z-score) [33]: -0.594 | glycan array binding signal (z-score) [34]: 1.12
